Laboratory results as given in US8153167B2, “Herbal medicine for osteoporosis and related conditions” (Medipearl Pte Ltd., priority 2007, dated 2012).

Test system: ovariectomized rats
Assay: ovariectomized rat osteoporosis animal model
Format: in vivo
Conditions: three months, dose not given
Procedure: Materials have been tested in ovariectomized rats, a popular and generally accepted osteoporosis animal model.
After orally dosing continuously for three months at 0.12, 0.25, 0.5 and 0.8 g/kg/day, twice a day, the bone mass index, wet weight and dry weight of femur, bone mineral densities of femur and lumbar were measured and calculated. Body weights of rats were measured weekly.
The effects of the purified composition on the body weight of the rats in the groups described above were determined.
We measured the body weight of each experimental animal group weekly. The ovariectomized rats had been noticed to have a pronounced body weight increase compared to the sham-operated normal control group.

`NCCCC(O)(P(=O)(O)O)P(=O)(O)O` [Fosamax ®] was tested, and the “Bone Mass Index ( x ± s)” value (femur) was 3.4202 ± 0.2476, the “Bone mineral densities, Femur ( x ± s)” value was 0.1436 ± 0.00483 and the “Bone mineral densities, Lumbar Spine ( x ± s)” value was 0.1610 ± 0.00774.
